Data taken from PubChem BioAssay AID1080, deposited by Emory University Molecular Libraries Screening Center (2008).

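A cell line overexpressing EP4 prostanoid receptors, stimulated with a low (about EC15) PGE2 dose; cAMP read by HTRF FRET after a short room-temperature incubation. Compounds were tested at 20 µM final. A low (about EC15) PGE2 dose was present. Percent cAMP induction as a fraction of the 1 µM PGE2 response, averaged over three replicates; a higher value means more cAMP.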

Values are in %. Common to all entries: measured here: EP4 receptor counter-screen. Part of the compounds only, not a random draw; the main read-out is not listed here.

compound	condition	cAMP induction (%)
O=C(O)COc1ccc2occ(C(=O)c3ccccc3)c2c1	percent of 1 uM PGE2 response; plus low (about EC15) PGE2 agonist	10.17
COC(=O)c1c(NC(=O)CSc2nnc(-c3ccco3)n2Cc2ccccc2)sc(C)c1C	percent of 1 uM PGE2 response; plus low (about EC15) PGE2 agonist	-12.94
CCOC(=O)C1=C(CC)OC(N)=C(C#N)C1c1ccsc1 (stereo unspecified)	percent of 1 uM PGE2 response; plus low (about EC15) PGE2 agonist	-5.443
COC[C@H]1OC(=O)c2coc3c2[C@@]1(C)C1=C(C3=O)C2CCC(=O)[C@@]2(C)C[C@H]1OC(C)=O (stereo partly specified)	percent of 1 uM PGE2 response; plus low (about EC15) PGE2 agonist	5.483
Cc1ccc(C)c(CN2C(=O)C(C)Oc3ccc(C)cc32)c1 (stereo unspecified)	percent of 1 uM PGE2 response; plus low (about EC15) PGE2 agonist	6.107
COc1cccc2cc(/C(=N/O)c3ccccc3)oc12	percent of 1 uM PGE2 response; plus low (about EC15) PGE2 agonist	-6.277
O=C(CNC1CCCCC1)N1CCC2(CC1)OCCO2	-	4.667
CCOC(=O)c1c(CC(C)C)csc1/N=C/C1C(=O)CCCC1=O	percent of 1 uM PGE2 response; plus low (about EC15) PGE2 agonist	-6.557
COC(=O)c1sccc1NC(=O)c1cc2c(s1)CCCC2	percent of 1 uM PGE2 response; plus low (about EC15) PGE2 agonist	-4.35
CC1=CC(C)(C)N(S(=O)(=O)c2ccc(F)cc2)c2ccc(C)cc21	percent of 1 uM PGE2 response; plus low (about EC15) PGE2 agonist	16.96
O=c1[nH]c(N/N=C/c2ccccc2)nc2ccccc12	percent of 1 uM PGE2 response; plus low (about EC15) PGE2 agonist	5.177
CCOC(=O)c1c(NC(=O)CN2CCCCC2)sc2c1CCN(C(=O)OCC)C2	percent of 1 uM PGE2 response; plus low (about EC15) PGE2 agonist	-6.37
Cc1cc(C(=O)CSc2nc3ccccc3c(=O)n2C)c(C)n1Cc1ccc2c(c1)OCO2	percent of 1 uM PGE2 response; plus low (about EC15) PGE2 agonist	85.09
Cc1cccc(C(=O)c2cnc3ccccc3c2-c2ccccc2)c1	percent of 1 uM PGE2 response; plus low (about EC15) PGE2 agonist	-5.877
CCSc1nc2c(c(=O)[nH]c(=O)n2C)n1Cc1ccc(Cl)cc1	percent of 1 uM PGE2 response; plus low (about EC15) PGE2 agonist	7.52
Cc1ccc(C(=O)c2cnc3ccccc3c2-c2ccccc2)cc1	percent of 1 uM PGE2 response; plus low (about EC15) PGE2 agonist	-10.14
CCCCCCC/C=C\CCCCCCCCC(=O)O	percent of 1 uM PGE2 response; plus low (about EC15) PGE2 agonist	-2.083
CN(C)c1nc(-c2ccccc2)c2cnn(Cc3ccccc3)c2n1	percent of 1 uM PGE2 response; plus low (about EC15) PGE2 agonist	-0.3667
COc1ccc(C(=O)c2cnc3ccccc3c2-c2ccccc2)cc1	percent of 1 uM PGE2 response; plus low (about EC15) PGE2 agonist	-5.96
CCOC(=O)c1c(-c2ccc(C)cc2)csc1NC(=O)CCN1CCOCC1	percent of 1 uM PGE2 response; plus low (about EC15) PGE2 agonist	3.213
CC(=O)Oc1c2c(c3c(c1CC=C(C)C)O[C@]14C(=C[C@@H]5CC1C(C)(C)OC4(C/C=C(\C)C(=O)O)C5=O)C3=O)OC(C)(CCC=C(C)C)C=C2 (stereo partly specified)	percent of 1 uM PGE2 response; plus low (about EC15) PGE2 agonist	-15.89
CCCCc1n[nH]c(=S)n1Cc1ccc(Cl)cc1	percent of 1 uM PGE2 response; plus low (about EC15) PGE2 agonist	9.443
Cc1ccc(C(C)C)c(OCc2ccc(-c3nnco3)cc2)c1	percent of 1 uM PGE2 response; plus low (about EC15) PGE2 agonist	17.26
S=c1[nH]nc(-c2ccc(Br)o2)n1Cc1ccccc1	percent of 1 uM PGE2 response; plus low (about EC15) PGE2 agonist	7.813
Brc1ccc(Cn2c(-c3cncs3)nc3ccccc32)cc1	percent of 1 uM PGE2 response; plus low (about EC15) PGE2 agonist	-2.47
O=c1[nH]c(=S)c2c(n1-c1ccccc1)CCC2	percent of 1 uM PGE2 response; plus low (about EC15) PGE2 agonist	63.6

The last 3 entries again:

{"compound": "S=c1[nH]nc(-c2ccc(Br)o2)n1Cc1ccccc1", "condition": "percent of 1 uM PGE2 response; plus low (about EC15) PGE2 agonist", "cAMP induction (%)": "7.813"}
{"compound": "Brc1ccc(Cn2c(-c3cncs3)nc3ccccc32)cc1", "condition": "percent of 1 uM PGE2 response; plus low (about EC15) PGE2 agonist", "cAMP induction (%)": "-2.47"}
{"compound": "O=c1[nH]c(=S)c2c(n1-c1ccccc1)CCC2", "condition": "percent of 1 uM PGE2 response; plus low (about EC15) PGE2 agonist", "cAMP induction (%)": "63.6"}